# Test results reported in the supplement of paper PMC8728848.
# The list shows a part of the results.
# Experiments:
# Assay in all cases: glycan array binding signal (z-score within array); higher = stronger binding
# Conditions in all cases: glycan notation: IUPAC condensed, linker removed
# [1] = molecular target: Neu5Ac(a2-3)Gal6S(b1-4)[Fuc(a1-3)]GlcNAc
# Outline: (§1)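 Glycan array binding is given as a within-array Z-score, which can be read as non-binding when negative. The arrays, 3228 of them, came from the Consortium for Functional Glycomics database and were retained only where the protein sequence was available. Z-scores were averaged across arrays of the same protein sequence at different concentrations or buffers and across linkers.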
# [2] = molecular target: Neu5Ac(a2-3)GalNAc
# Outline: as §1
# [3] = molecular target: Neu5Ac(a2-3)GalNAc(b1-4)GlcNAc
# Outline: as §1
# [4] = molecular target: Neu5Ac(a2-3)[GalNAc(b1-4)]Gal(b1-4)Glc
# Outline: as §1
# [5] = molecular target: Neu5Ac(a2-3)[GalNAc(b1-4)]Gal(b1-4)GlcNAc
# Outline: as §1
# [6] = molecular target: Neu5Ac(a2-3)[GalNAc(b1-4)]Gal(b1-4)GlcNAc(b1-3)GalNAc
# Outline: as §1
# [7] = molecular target: Neu5Ac(a2-3)[Neu5Ac(a2-6)]GalNAc
# Outline: as §1
# [8] = molecular target: Neu5Ac(a2-6)Gal
# Outline: as §1
# [9] = molecular target: Neu5Ac(a2-6)Gal(b1-3)GlcNAc(b1-3)[Gal(b1-4)GlcNAc(b1-6)]Gal(b1-4)Glc
# Outline: as §1
# [10] = molecular target: Neu5Ac(a2-6)Gal(b1-4)Glc
# Outline: as §1
# [11] = molecular target: Neu5Ac(a2-6)Gal(b1-4)GlcNAc
# Outline: as §1
# [12] = molecular target: Neu5Ac(a2-6)Gal(b1-4)GlcNAc(b1-2)Man
# Outline: as §1
# [13] = molecular target: Neu5Ac(a2-6)Gal(b1-4)GlcNAc(b1-2)Man(a1-3)Man(b1-4)GlcNAc(b1-4)GlcNAc
# Outline: as §1
# [14] = molecular target: Neu5Ac(a2-6)Gal(b1-4)GlcNAc(b1-2)Man(a1-3)[Gal(b1-4)GlcNAc(b1-2)Man(a1-6)]Man(b1-4)GlcNAc(b1-4)GlcNAc
# Outline: as §1
# [15] = molecular target: Neu5Ac(a2-6)Gal(b1-4)GlcNAc(b1-2)Man(a1-3)[GlcNAc(b1-2)Man(a1-6)]Man(b1-4)GlcNAc(b1-4)GlcNAc
# Outline: as §1
# [16] = molecular target: Neu5Ac(a2-6)Gal(b1-4)GlcNAc(b1-2)Man(a1-3)[GlcNAc(b1-4)][Neu5Ac(a2-6)Gal(b1-4)GlcNAc(b1-2)Man(a1-6)]Man(b1-4)GlcNAc(b1-4)GlcNAc
# Outline: as §1
# [17] = molecular target: Neu5Ac(a2-6)Gal(b1-4)GlcNAc(b1-2)Man(a1-3)[Man(a1-6)]Man(b1-4)GlcNAc(b1-4)GlcNAc
# Outline: as §1
# [18] = molecular target: Neu5Ac(a2-6)Gal(b1-4)GlcNAc(b1-2)Man(a1-3)[Neu5Ac(a2-3)Gal(b1-4)GlcNAc(b1-2)Man(a1-6)]Man(b1-4)GlcNAc(b1-4)GlcNAc
# Outline: as §1
# [19] = molecular target: Neu5Ac(a2-6)Gal(b1-4)GlcNAc(b1-2)Man(a1-3)[Neu5Ac(a2-6)Gal(b1-4)GlcNAc(b1-2)Man(a1-6)]Man(b1-4)GlcNAc(b1-4)GlcNAc
# Outline: as §1
# [20] = molecular target: Neu5Ac(a2-6)Gal(b1-4)GlcNAc(b1-2)Man(a1-3)[Neu5Ac(a2-6)Gal(b1-4)GlcNAc(b1-2)Man(a1-6)]Man(b1-4)GlcNAc(b1-4)[Fuc(a1-6)]GlcNAc
# Outline: as §1
# [21] = molecular target: Neu5Ac(a2-6)Gal(b1-4)GlcNAc(b1-2)Man(a1-6)Man(b1-4)GlcNAc(b1-4)GlcNAc
# Outline: as §1
# [22] = molecular target: Neu5Ac(a2-6)Gal(b1-4)GlcNAc(b1-2)Man(a1-6)[Gal(b1-4)GlcNAc(b1-2)Man(a1-3)]Man(b1-4)GlcNAc(b1-4)GlcNAc
# Outline: as §1
# [23] = molecular target: Neu5Ac(a2-6)Gal(b1-4)GlcNAc(b1-2)Man(a1-6)[GlcNAc(b1-2)Man(a1-3)]Man(b1-4)GlcNAc(b1-4)GlcNAc
# Outline: as §1
# [24] = molecular target: Neu5Ac(a2-6)Gal(b1-4)GlcNAc(b1-2)Man(a1-6)[Man(a1-3)]Man(b1-4)GlcNAc(b1-4)GlcNAc
# Outline: as §1
# [25] = molecular target: Neu5Ac(a2-6)Gal(b1-4)GlcNAc(b1-2)[Neu5Ac(a2-6)Gal(b1-4)GlcNAc(b1-4)]Man(a1-3)[GlcNAc(b1-4)][Neu5Ac(a2-6)Gal(b1-4)GlcNAc(b1-2)[Neu5Ac(a2-6)Gal(b1-4)GlcNAc(b1-6)]Man(a1-6)]Man(b1-4)GlcNAc(b1-4)GlcNAc
# Outline: as §1
# [26] = molecular target: Neu5Ac(a2-6)Gal(b1-4)GlcNAc(b1-2)[Neu5Ac(a2-6)Gal(b1-4)GlcNAc(b1-4)]Man(a1-3)[GlcNAc(b1-4)][Neu5Ac(a2-6)Gal(b1-4)GlcNAc(b1-4)Man(a1-6)]Man(b1-4)GlcNAc(b1-4)GlcNAc
# Outline: as §1
# [27] = molecular target: Neu5Ac(a2-6)Gal(b1-4)GlcNAc(b1-2)[Neu5Ac(a2-6)Gal(b1-4)GlcNAc(b1-6)]Man(a1-6)[Neu5Ac(a2-6)Gal(b1-4)GlcNAc(b1-2)Man(a1-3)][GlcNAc(b1-4)]Man(b1-4)GlcNAc(b1-4)GlcNAc
# Outline: as §1
# [28] = molecular target: Neu5Ac(a2-6)Gal(b1-4)GlcNAc(b1-3)Gal(b1-3)GlcNAc
# Outline: as §1
# [29] = molecular target: Neu5Ac(a2-6)Gal(b1-4)GlcNAc(b1-3)Gal(b1-4)GlcNAc
# Outline: as §1
# [30] = molecular target: Neu5Ac(a2-6)Gal(b1-4)GlcNAc(b1-3)Gal(b1-4)GlcNAc(b1-2)Man(a1-3)[Neu5Ac(a2-6)Gal(b1-4)GlcNAc(b1-3)Gal(b1-4)GlcNAc(b1-2)Man(a1-6)]GalNAc
# Outline: as §1
# [31] = molecular target: Neu5Ac(a2-6)Gal(b1-4)GlcNAc(b1-3)Gal(b1-4)GlcNAc(b1-3)Gal(b1-4)GlcNAc
# Outline: as §1
# [32] = molecular target: Neu5Ac(a2-6)Gal(b1-4)GlcNAc(b1-3)Gal(b1-4)GlcNAc(b1-3)Gal(b1-4)GlcNAc(b1-2)Man(a1-3)[Neu5Ac(a2-6)Gal(b1-4)GlcNAc(b1-3)Gal(b1-4)GlcNAc(b1-3)Gal(b1-4)GlcNAc(b1-2)Man(a1-6)]GalNAc
# Outline: as §1
# [33] = molecular target: Neu5Ac(a2-6)Gal(b1-4)GlcNAc(b1-3)Gal(b1-4)GlcNAc(b1-3)GalNAc
# Outline: as §1
# [34] = molecular target: Neu5Ac(a2-6)Gal(b1-4)GlcNAc(b1-3)Gal(b1-4)GlcNAc(b1-3)[Neu5Ac(a2-6)Gal(b1-4)GlcNAc(b1-3)Gal(b1-4)GlcNAc(b1-6)]GalNAc
# Outline: as §1
# [35] = molecular target: Neu5Ac(a2-6)Gal(b1-4)GlcNAc(b1-3)Gal(b1-4)GlcNAc(b1-6)[Gal(b1-3)]GalNAc
# Outline: as §1
# [36] = molecular target: Neu5Ac(a2-6)Gal(b1-4)GlcNAc(b1-3)Gal(b1-4)[Fuc(a1-3)]GlcNAc(b1-3)Gal(b1-4)[Fuc(a1-3)]GlcNAc
# Outline: as §1
# [37] = molecular target: Neu5Ac(a2-6)Gal(b1-4)GlcNAc(b1-3)GalNAc
# Outline: as §1
# [38] = molecular target: Neu5Ac(a2-6)Gal(b1-4)GlcNAc(b1-3)[Neu5Ac(a2-6)Gal(b1-4)GlcNAc(b1-6)]GalNAc
# Outline: as §1
# [39] = molecular target: Neu5Ac(a2-6)Gal(b1-4)GlcNAc(b1-6)GalNAc
# Outline: as §1
# [40] = molecular target: Neu5Ac(a2-6)Gal(b1-4)GlcNAc(b1-6)[Gal(b1-3)GlcNAc(b1-3)]Gal(b1-4)Glc
# Outline: as §1
# [41] = molecular target: Neu5Ac(a2-6)Gal(b1-4)GlcNAc(b1-6)[Gal(b1-3)]GalNAc
# Outline: as §1
# [42] = molecular target: Neu5Ac(a2-6)Gal(b1-4)GlcNAc6S
# Outline: as §1
# [43] = molecular target: Neu5Ac(a2-6)GalNAc
# Outline: as §1
# [44] = molecular target: Neu5Ac(a2-6)GalNAc(b1-4)GlcNAc
# Outline: as §1
# [45] = molecular target: Neu5Ac(a2-6)GalNAc(b1-4)GlcNAc6S
# Outline: as §1
binder,measurement,setting,value
"XTP3-B-MRH1 (Homo sapiens), Q96DZ1 (protein) LLEPLFKQSSCSYRIESYWTYEVCHGKHIRQYHEEKETGQKINIHEYYLGNMLAKNLLFEKEREAEEKEKSNEIPTKNIEGQMTPYYPVGMGNGTPCSLKQNRPRSSTVMYICHPESKHEILSVAEVTTCEYEVVILTPLLCSHPKYRFRA",glycan array binding signal (z-score),[1],-0.569
same,glycan array binding signal (z-score),[2],-1.08
same,glycan array binding signal (z-score),[3],-0.164
same,glycan array binding signal (z-score),[4],-0.491
same,glycan array binding signal (z-score),[5],-0.172
same,glycan array binding signal (z-score),[6],-1.31
same,glycan array binding signal (z-score),[7],0.205
same,glycan array binding signal (z-score),[8],0.933
same,glycan array binding signal (z-score),[9],-1.11
same,glycan array binding signal (z-score),[10],1.31
same,glycan array binding signal (z-score),[11],0.75
same,glycan array binding signal (z-score),[12],1.44
same,glycan array binding signal (z-score),[13],2.43
same,glycan array binding signal (z-score),[14],-0.887
same,glycan array binding signal (z-score),[15],0.279
same,glycan array binding signal (z-score),[16],1.39
same,glycan array binding signal (z-score),[17],-0.3
same,glycan array binding signal (z-score),[18],-1.09
same,glycan array binding signal (z-score),[19],-0.276
same,glycan array binding signal (z-score),[20],0.873
same,glycan array binding signal (z-score),[21],1.26
same,glycan array binding signal (z-score),[22],0.711
same,glycan array binding signal (z-score),[23],-0.61
same,glycan array binding signal (z-score),[24],0.981
same,glycan array binding signal (z-score),[25],-0.496
same,glycan array binding signal (z-score),[26],-0.682
same,glycan array binding signal (z-score),[27],-0.198
same,glycan array binding signal (z-score),[28],-0.136
same,glycan array binding signal (z-score),[29],0.302
same,glycan array binding signal (z-score),[30],-1.07
same,glycan array binding signal (z-score),[31],-1.09
same,glycan array binding signal (z-score),[32],1.47
same,glycan array binding signal (z-score),[33],0.763
same,glycan array binding signal (z-score),[34],0.057
same,glycan array binding signal (z-score),[35],-0.455
same,glycan array binding signal (z-score),[36],-0.572
same,glycan array binding signal (z-score),[37],2.04
same,glycan array binding signal (z-score),[38],-0.59
same,glycan array binding signal (z-score),[39],-0.736
same,glycan array binding signal (z-score),[40],-0.259
same,glycan array binding signal (z-score),[41],-0.37
same,glycan array binding signal (z-score),[42],-0.388
same,glycan array binding signal (z-score),[43],0.836
same,glycan array binding signal (z-score),[44],-0.824
same,glycan array binding signal (z-score),[45],-0.093

# Exported bar-delimited: part of the list above
binder | measurement | setting | value
XTP3-B-MRH1 (Homo sapiens), Q96DZ1 (protein) LLEPLFKQSSCSYRIESYWTYEVCHGKHIRQYHEEKETGQKINIHEYYLGNMLAKNLLFEKEREAEEKEKSNEIPTKNIEGQMTPYYPVGMGNGTPCSLKQNRPRSSTVMYICHPESKHEILSVAEVTTCEYEVVILTPLLCSHPKYRFRA | glycan array binding signal (z-score) | [31] | -1.09
same | glycan array binding signal (z-score) | [37] | 2.04
same | glycan array binding signal (z-score) | [43] | 0.836
